In publication PMC9962925, “PKD autoinhibition in trans regulates activation loop autophosphorylation in cis” (Proceedings of the National Academy of Sciences of the …, 2023):
Substitutions are numbered along the chain they refer to. Names and notes keep the numbering of the source. Results are given in words; binding and its absence hold for the method and conditions named.

Tests used:
[1] = biological target: PKD1^KD S738E/S742E (human) (UniProt Q15139); assay: SEC; analytical size exclusion chromatography of purified proteins (Fig. 1C); elution volumes calibrated to monomer and dimer masses by SEC-MALS; both purified
[2] = biological target: PKD1^KD S738E/S742E (human) (UniProt Q15139); assay: SEC-MALS; 60 uL of purified protein at 2 mg/mL on an S200 10/300 column, room temperature, 20 mM HEPES pH 7.4, 150 mM KCl, 1 mM EDTA, 1 mM TCEP, 1% glycerol (Fig. 1H); both purified
[3] = biological target: PKD1^KD D706N/2E (human) (UniProt Q15139); assay: SEC; analytical size exclusion chromatography of purified proteins (Fig. 1C); elution volumes calibrated to monomer and dimer masses by SEC-MALS; both purified
[4] = biological target: PKD1^KD R732M 2E (human) (UniProt Q15139); assay: as above

B1: PKD1^KD S738E/S742E (domain or fragment, UniProt Q15139 570-890)
chain: QIQENVDISTVYQIFPDEVLGSGQFGIVYGGKHRKTGRDVAIKIIDKLRFPTKQESQLRNEVAILQNLHHPGVVNLECMFETPERVFVVMEKLHGDMLEMILSSEKGRLPEHITKFLITQILVALRHLHFKNIVHCDLKPENVLLASADPFPQVKLCDFGFARIIGEKEFRREVVGTPAYLAPEVLRNKGYNRSLDMWSVGVIIYVSLSGTFPFNEDEDIHDQIQNAAFMYPPNPWKEISHEAIDLINNLLQVKMRKRYSVDKTLSHPWLQDYQTWLDLRELECKIGERYITHESDDLRWEKYAGEQGLQYPTHLINPSAS
- binding [1]: no binding
- binding [2]: no binding (tested: 2 mg/mL injected)

B2: PKD1^KD D706N/2E (domain or fragment, UniProt Q15139 570-890)
chain: B1 chain with D137N
- binding [3]: no binding

B3: PKD1^KD R732M 2E (domain or fragment, UniProt Q15139 570-890)
chain: B1 chain with R163M
- binding [4]: no binding
